Data published in patent US20140141994A1.
Results are given in words; binding and its absence hold for the method and conditions named. Some entries that bind do so weakly or less than the wild type.

Sequences of proteins named here, by UniProt entry; tags and fusion partners are left off. Residues count along the entry.
UniProt O14763, residues 54-182: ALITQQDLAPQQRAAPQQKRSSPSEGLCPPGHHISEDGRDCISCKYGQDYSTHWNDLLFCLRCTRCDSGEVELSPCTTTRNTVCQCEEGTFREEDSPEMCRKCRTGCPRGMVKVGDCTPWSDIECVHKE

Legend:
[1] = molecular target: TRAIL-R2/Fc fusion protein (R & D Systems) (human) (UniProt O14763); assay: competition phage ELISA, TRAIL-R2 coated plate, phage displayed Tn3 with soluble Tn3 competitors, signal relative to no Tn3
[2] = molecular target: TRAIL-R2/Fc fusion protein (R & D Systems) (human) (UniProt O14763); assay: TRAIL-R2 phage ELISA
[3] = molecular target: TRAIL-R2/Fc fusion protein (R & D Systems) (human) (UniProt O14763); assay: competition phage ELISA on TRAIL-R2 coated plates
[4] = molecular target: TRAIL-R2/Fc fusion protein (R & D Systems) (human) (UniProt O14763); assay: competition phage ELISA, TRAIL-R2 coated plate, phage displayed Tn3 with or without soluble 7G11 or 5E5
[5] = molecular target: TRAIL-R2/Fc fusion protein (R & D Systems) (human) (UniProt O14763); assay: BIAcore, TRAIL-R2/Fc captured on anti-human-Fc IgG, 5E5 injected

Measured: binding

B1: 5E5 (designed binder)
chain: IEVKDVTDTTALITWSLAPGYRLGCELTYGIKDVPGDRTTIDLTEDENQYSIGNLKPDTEYEVSLICVKLCMRGNPAKETFTT
binds: all assays above
